From PMC6811503 come the findings set out here.

Results are given in words; binding and its absence hold for the method and conditions named. Binding seen in cells or lysates may run through a third protein. A yes stands for co-enrichment or nearness to the bait. Other partners may have been found. Tags and fused reporters may be left off the sequences shown.

T1: Pbp1-4×FLAG (C. neoformans) (UniProt J9VND4)
T1 sequence: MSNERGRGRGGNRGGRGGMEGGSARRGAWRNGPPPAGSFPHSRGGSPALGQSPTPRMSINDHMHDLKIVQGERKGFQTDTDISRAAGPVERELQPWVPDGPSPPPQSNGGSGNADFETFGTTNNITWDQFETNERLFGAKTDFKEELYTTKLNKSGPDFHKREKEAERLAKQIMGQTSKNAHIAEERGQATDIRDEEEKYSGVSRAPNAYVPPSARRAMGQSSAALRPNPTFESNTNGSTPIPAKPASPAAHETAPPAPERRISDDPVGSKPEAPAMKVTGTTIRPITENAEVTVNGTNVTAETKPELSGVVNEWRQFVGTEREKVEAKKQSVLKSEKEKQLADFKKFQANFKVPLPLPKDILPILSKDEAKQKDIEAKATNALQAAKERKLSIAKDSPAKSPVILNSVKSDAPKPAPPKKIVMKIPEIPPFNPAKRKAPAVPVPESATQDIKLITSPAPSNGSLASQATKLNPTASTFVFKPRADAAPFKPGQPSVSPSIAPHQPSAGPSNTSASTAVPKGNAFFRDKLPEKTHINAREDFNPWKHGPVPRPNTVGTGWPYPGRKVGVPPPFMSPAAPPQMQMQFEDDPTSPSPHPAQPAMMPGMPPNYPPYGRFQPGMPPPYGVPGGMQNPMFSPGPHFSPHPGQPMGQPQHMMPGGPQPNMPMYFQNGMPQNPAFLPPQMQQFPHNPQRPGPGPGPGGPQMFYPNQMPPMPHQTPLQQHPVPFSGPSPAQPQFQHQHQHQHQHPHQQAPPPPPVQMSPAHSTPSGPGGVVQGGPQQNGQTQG

B1: HEF3 (protein, UniProt J9VQZ9 1-1055)
chain: MAPAATAAASSGKGSFDLATLFVADKAARDEAGLALADAVKKSGVEFFTQIGFNDAIVKALNDKKSQSAREGACEVISTLCENGAAQLLEPHVISSAENTPFPALLEAFADKVAAVKTAAIAAVKAIVQSMNPWASFVLLPALLNLIRTSGKWQIKAGSLEILQQLITSAPFQMGEAMPDLVPVLAEAVWDTKSDVKKAAKATLEKAVSLVENKDIEKFVPALVKSLLNPIEEVPKTISLLSATTFVSEVTAPTISLIAPLLIRGLDERPTATKRKVCVIADNMSKLVDSEYTVRPFLPQLLPRLIKTSETIADPEARSVANRAIVTLRRIGKVPAESDGSDLPPLPVAEGPHLATNFVALVKKHGGVSVEQTNPGLAYAGVLAASLVNHHNFDQKTWESTLPPYLKLALPSYDSLPAVRELLQKKADEAETDDAKFPDEEEGEDLCNIEQFNLAYGAKILLHHANMRLKRGHRYGLCGRNGSGKSTLMNAIINNQVEGFPPPTEVRTFYVQHDIDGSEAEISILDWVLGDKRLLATPDEIKSTLESVGFDEVKQKNSIGSLSGGWKMKLALARAILFKADILLLDEPTNHLDVLNVDWLINYLTSLTRCTSIIVSHDSDFLNRTVTDVLHLNNFKLKRYPGNLEDFVQHVPEAKSYYQLDVAEDYQFKLPNPPLLDGVKTKEKSLLKMRNVSFQYPGSSIQQLYDISLQVSLSSRVAILGPNGSGKSTLVKLLTGETEPNLGGQVWKHPNLVIGYVAQHAFHHIDNHLDSTPLEYMLWRYQTGEDLEEMHKANRVMTEAEIAKMKEGATVIKDGVKRIIDELVARKKLKQSYEYEVSFKGMSSAENIWISRDELVARGFEKKVMELDTREAQRLGLMRPLVRREIEKHFEDFGLDAEFVSHNSMRGLSGGQKVKVVLGAATWRRPHIICLDEPTNYLDRESLAALIAALKNFEGGVLIITHNREFSESICTEVWAMREGYLEASGHNWVEGQGSGERIDKKAADDDEVEYDALGNPIVKAKKEKKLSAADKRKAKKDRMARRKRGEEVFSDEEL
B2: CDC53 (protein, UniProt J9W365 1-775)
chain: MSASASGSSWTEPTKAQAPPKDADLKQAWAFLSVGVDHIMTRLSFGMSYSYYILLYTAIYNYCTQPGKTGLTSFSPQRGGASLQGADLHRSLHNWLSVHCKSMREEAEKLPDQELLKYYARQWDRYTRGALYVNKLFNYLNKHWVKREKDEGRKDVYQVYTLALVSWKNNFFDHFTDNKGTSRLTQALLRQIQQQRNGEEVDSSLLKKVIDSYVSLGLDEADAQRQNLDTYRKHFQAQFLEATDTYYRAESSAFVGSNSVSDYMKKAEARLQEEADRVNLYLHDNTRNDLKTRCEKVLIEEHQAIMWDEFQTLLDSDRVDDLARMYGLLSRVLNGLDPLREKFGQHVRRTGRAAVEKVLPAPGAVNEAGKAESLDPKAYVEALLEVHGKYTSMVEGPFRGEMGFNRALDQACGDFCNSNAACTVSTKSPELLASYCDLLLRKSNKDSDAESLEASLSKAMIIFNFIDDKDVFHKFYQKKLAQRLVGSLSASDDAESSMITKLKELSGFEYTNKLSKMFTDVNLSKDLMERFNEKEREKGVASDIDFQPLVLGSNSWPLHPQQTDFAIPREIQALYDRFNAFHGEVHQGRTLNWLWHISKNELRTTYLNQKYILMTSAYQMAILTQFNVSDTLSYKDIEAGTKLSPTVLKPQLGLLVKLKILLNTDEEYSLNTGFKSKKIRVNLNQTIKSEARAEQKEVIAAVDEDRKFVYQATIVRLMKGRKTMQHQALIQEVTAQISSKFTPKIPEIKKAIEYLIDKEYLERAPDSNNTYNYLA
B3: Pob3 (protein, UniProt J9VXA2 1-588)
chain: MSTVTFENIFHGDSADLGKLRFNPVGFGWKAYQSEDNNPTTYNGSDIRHATWFRVARHFQLRLGMRNSEKPRISFDGFKRDDLDKIKRTLQEYFNITLETRDTSLKGWNWGEAQVKGSDLVFQVQGKTAFDVPLSQVANSNIAGKYEVALEFNPPSNYKFDPKDLNKRPPDEMVEMRFYIPGKSTKKAGSDAGSGGEETELDEEGNEVSAADAFHSLIKEKADIGAVVGDSIVVFEDCLILTPRGRFSIEVYADSIRLVGKSTDHRVPFTSIHRIFLLPKLDDLHVQLVLGLDPPIRQGATRYPFLVAQWPKDEVVNAELNLTDEELAQYPDLEKTYEATTFQVVSRVLKALTGKKVTPPGSLRNAQGLNGIRANVKAVQGELYFLEKGLIFISKQPILIDFSKTDSISFSRVGGGVASARTFDMRVVSKTGGADHVFSAINKQEVGPISSFLQSKNIRLKNEMEEAIVDIDEPFSDDDEEMESASEDERPSRAKNDKSKTKPVKKLADDDEDESEDEDFEDESSDGGSPSESDSDDDSGMASDASDPMMEELRKKTQAKRTKAKETSGSGSEEEKPKKKKVKKDDDE
B4: Utp5 (protein, UniProt J9VI77 1-714)
chain: MAPRQPVAGPSKPKHSQQPAIQSPPAPAAVSAFNSTRTLFALASPVLGQADKVQVWDVAGDRVISEWEVVGASKASSVCFTTVPSDAASTKKKRRKSGSGRGAEEEVVLVTTSKSQLLVLSTKQTEPLRTLDLPASVTAAWSEERASILATASSLLVLSADASSISHTFTLPSSLSSPTAITILPTSTAESLHVLVASSLVVTLHLSLASQEVTFVSSPLPASTSSISSLLPLPLTEQGASFLVVSEDDRTISQYTLTSPQSPARLSYRYASPTLSSAHSITADPDLLAVLHESGEISLFRLPSELDLSRPQSDAKPSTVKIVEGKEERTARLCRVAFAPVDDGASGALLCGRLTGGGRVKWSRAIYELPEGGLRPVTVVKVEAQELVGASSVSETVPVQRYVAPNTVNEAAPEDVDEAPVSQLPSDVNMAELSLGERMLAPDSQEADTGSKPAASSAGVTLDGPVNAASLTRVLVQALHTSDPALLTLCLSHRNPVLIRNTIRKMPPQLALPLLKACVERLGQGKGANKRGGGRGAAQNEQQGRGTVEWVKGVLVERGSILMTIPSLPVHLASLSQLLQNRLELNQPLQTLSGRLDLALAQITMRRIAAEQALENAKNGGQKGGEGEIYVEGESEDEDEIIEVGEDGGEIEDIDMGGLSESDESEEEEEEEEDEDEDEESDDDPLDSGSDNDLLDLQAEESGSDDEEESEDED
B5: Pch2 (protein, UniProt J9VND0 1-576)
chain: MSNIVEFSAPSSRSSSSKARNFVSPSTRLSKTLCLEKPFENINGNHEVESHIYKDEDVMEEDIMGEESMLVDTDQEEDSDADEEKEVIHVEVRQKSFSHLREQPIMQIVTQFIQEDLARVELGCELSGWNDIKVLRDHVERIWVEEGGVASVQVPEVDIQVHVYKASLNNEVEDFSADLDDDDSEEKVSAASVRTLPSAELDGIWDTLVYSDDIKARLLNYIYSTILFSESDIDFNVIAWNRVILLHGPPGTGKTSLCRALAQKMSIRLSQKYRHGKIIEINSHSLFSKWFSESGKLVQKLFQTVTEMVEDESGFVVVMIDEVESLTAARASAMKGNDPSDSLRVVNALLTQLDKLRTRKNVLVVTTSNLVDAIDEAFISRVDLLESVPLPPPRAIYSILSGCLKECITKKLIKRCRILDWKAAEEAQRERKFAGEVSIAEKGKEAREVRERGVAASLADLAVRCHAIELSGRTLRKLPVIAHARYLSSSSSSTSSMGEYRSLKVERWIEAMHKVVDVEQEKKHGLARGGSTLDAGDGETLTRRDGINGHAEAHGYGHAYMEKNEVGMMVGTKVKH
B6: Yta12 (protein, UniProt J9VGL8 1-817)
chain: MSLRALSLRRLPRYSALARPFFSRTYATPGSPKPSRNPPPPPGLESVFGGSAGKQGTTVAPKPPGVGPPSGPSLPKKPDVGLPGLEGEENRPEDQKEQDEPRRPKLSEQLSGKAGKRVTTGGGGGSGGSGGGAGGPGGQPGGFGGMTPNQLLLLAVSTYALWSMTAPDDVRTKEITWQEFRNSLLARGLVSSLEVVNRNKVRVHLHNPLSGQPQQTNPTGSGSLPSPSHGPAPYQFTIGSLEAFENLLLASQDELGIPPAERVPVSYREEISTFQTIMHFAPTLLIAGLLLWMARRGGSAMGGGGPGGGIFGVGKSRAKMFNKDEQVSVRFKDVAGMDEAKEEIMEFVKFLKEPLKYEKLGAKIPRGAILSGPPGTGKTLLAKATAGEAGVPFLSVSGSEFVEMFVGVGPSRVRDLFANAKKNAPCIIFVDEIDAIGKSRGKGGNFGGNDERESTLNQLLVEMDGFGTNEHVVVLAGTNRPDVLDSALMRPGRFDRHIAIDRPDIGGRRQIFAVHLKPITLAPDLTIERIAEKLALLTPGFSGADIANVCNEAALRAARHGGEVVTEADFDGAIERVIAGLERKSRVLGKDEKKTVAYHEAGHAVCGWFLEHADPLLKVSIIPRGVGALGYAQYLPKERFLFSTEQLLDRMSMTLGGRVAEEIFFGRITTGAQDDLQKITKMAFEVCANYGMDPAIGPISYGGRDQQGEGFQKPFSEATAEALDKAVKKMVIEAHDRTTRLLTEHKEDVEKVAKLLLVKEVITREDMRLTLGPRPFANKDEMDDLIERELDQKKQEKEEQEADGPVPQLAFKPIKVD
B7: CNAG_03494 (protein, UniProt J9VVS5 1-550)
chain: MSDMEINVKTLKVAELKEELSKRGLDTKGLKKDLAERLQGALDAEANPPSSEAAPAQAEEAPGSRPSTPPAPDVAAEPSPSRPQTPPLAQDSSAPLAPSTPSLPASDKGVGSVMVDGYPEALEKQAAEVKDDADMVETQPKALDEEVAKEVAKEEGKAVLPLTPSPPPRSLSPLPVEEEKKEEQREEEAERKFEAQSETKSEPSAPVEKDAKVQEDQQIAPPSPQSPADKKRPLPPSPAPPAKKSRTTDEVPIAFSHAIHPPTSTLFISNLKRPFMHSALHEYLFSTAPESSPPTLPPARTPFASDEYPGLWLSGVKDHAFAVYPSVEDALVAAQRIDNVQWPEDTGSALTIEFIADDKLLALVQEEEQAWTNGRQKLNLKVIKRDDGEFEFTHEGVGGLGRAPMRGGGPLRGVGMRGGVQGGYPPHHPGGGFGRPQGPPGQFGAVSAGGPRAPPRPVPLTGVNAIGVAGGRGGGAIGIRGRGGFGGGPGGHGRIDGPPLHGHGHGHGHAMQQRDPINEELKMRPTRFRPRLFWKKGPGAVEGLARGDGR

This test concerns the target T1, Pbp1-4×FLAG (C. neoformans). The test is described as follows: affinity purification with mass spectrometry; anti-FLAG M2 affinity gel on lysate of HP181 (Pbp1-4xFLAG), untagged H99 as control; cells grown at 30°C then 1 h at 37°C; lysis buffer 50 mM Tris-HCl pH 7.5, 150 NaCl, 0.5 mM EDTA, 0.5% Triton X-100; 4°C; one Coomassie-stained band seen only with HP181 was excised, digested with trypsin and analysed by LC-MS/MS.
As to B1, the binding entry is “binds”.

For B2, the binding result is on record as “binds”.

For B3, the binding result is listed as “binds”.

On to B4, for which the binding entry was “binds”.

Take B5: the binding result is reported as “binds”.

On to B6, for which the binding result was “binds”.

B7: the binding entry was “binds”.
